Measured values published in paper PMC8975949.
Results are given in words; binding and its absence hold for the method and conditions named. For some assays here: In cells and extracts the contact can be indirect. Some results given as binding are weak or reduced against the parent protein; the word gives no strength. For some assays here: Tags and fused reporters may be left off the sequences shown. Values belong to the molecule of their own block, whether it stands above or below them.

Protein sequences, listed by entry. Tags and fused reporters are not part of them. Lines headed by an entry give the natural chain unless they say otherwise; changes in a name come on top.
UniProt Q00651: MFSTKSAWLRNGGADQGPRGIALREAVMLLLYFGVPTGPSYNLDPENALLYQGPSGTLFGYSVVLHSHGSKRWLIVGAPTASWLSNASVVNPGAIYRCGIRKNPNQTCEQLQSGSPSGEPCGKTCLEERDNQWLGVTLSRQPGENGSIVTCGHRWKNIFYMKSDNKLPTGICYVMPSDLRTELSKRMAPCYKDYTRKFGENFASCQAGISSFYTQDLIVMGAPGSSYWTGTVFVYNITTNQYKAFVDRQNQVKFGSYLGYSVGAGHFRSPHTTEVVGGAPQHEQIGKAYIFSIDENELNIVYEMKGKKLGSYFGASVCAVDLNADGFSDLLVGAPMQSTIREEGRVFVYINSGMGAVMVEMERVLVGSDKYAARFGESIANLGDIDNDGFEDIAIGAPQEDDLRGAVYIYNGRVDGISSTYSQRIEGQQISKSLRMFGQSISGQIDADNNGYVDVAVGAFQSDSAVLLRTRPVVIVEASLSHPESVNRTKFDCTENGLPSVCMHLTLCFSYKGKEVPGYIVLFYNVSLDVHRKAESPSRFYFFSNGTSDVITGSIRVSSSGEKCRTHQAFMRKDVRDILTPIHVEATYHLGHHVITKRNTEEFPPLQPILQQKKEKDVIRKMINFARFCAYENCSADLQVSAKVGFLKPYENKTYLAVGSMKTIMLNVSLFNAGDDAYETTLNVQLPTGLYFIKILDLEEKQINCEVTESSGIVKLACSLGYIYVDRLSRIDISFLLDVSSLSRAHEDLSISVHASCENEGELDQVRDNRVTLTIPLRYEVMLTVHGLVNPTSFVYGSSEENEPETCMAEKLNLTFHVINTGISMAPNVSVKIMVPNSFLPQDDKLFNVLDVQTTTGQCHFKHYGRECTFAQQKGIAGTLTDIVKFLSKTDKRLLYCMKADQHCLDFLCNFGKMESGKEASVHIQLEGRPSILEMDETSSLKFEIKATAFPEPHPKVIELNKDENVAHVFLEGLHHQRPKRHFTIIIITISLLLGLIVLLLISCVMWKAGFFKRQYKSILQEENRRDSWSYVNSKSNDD
UniProt P09055: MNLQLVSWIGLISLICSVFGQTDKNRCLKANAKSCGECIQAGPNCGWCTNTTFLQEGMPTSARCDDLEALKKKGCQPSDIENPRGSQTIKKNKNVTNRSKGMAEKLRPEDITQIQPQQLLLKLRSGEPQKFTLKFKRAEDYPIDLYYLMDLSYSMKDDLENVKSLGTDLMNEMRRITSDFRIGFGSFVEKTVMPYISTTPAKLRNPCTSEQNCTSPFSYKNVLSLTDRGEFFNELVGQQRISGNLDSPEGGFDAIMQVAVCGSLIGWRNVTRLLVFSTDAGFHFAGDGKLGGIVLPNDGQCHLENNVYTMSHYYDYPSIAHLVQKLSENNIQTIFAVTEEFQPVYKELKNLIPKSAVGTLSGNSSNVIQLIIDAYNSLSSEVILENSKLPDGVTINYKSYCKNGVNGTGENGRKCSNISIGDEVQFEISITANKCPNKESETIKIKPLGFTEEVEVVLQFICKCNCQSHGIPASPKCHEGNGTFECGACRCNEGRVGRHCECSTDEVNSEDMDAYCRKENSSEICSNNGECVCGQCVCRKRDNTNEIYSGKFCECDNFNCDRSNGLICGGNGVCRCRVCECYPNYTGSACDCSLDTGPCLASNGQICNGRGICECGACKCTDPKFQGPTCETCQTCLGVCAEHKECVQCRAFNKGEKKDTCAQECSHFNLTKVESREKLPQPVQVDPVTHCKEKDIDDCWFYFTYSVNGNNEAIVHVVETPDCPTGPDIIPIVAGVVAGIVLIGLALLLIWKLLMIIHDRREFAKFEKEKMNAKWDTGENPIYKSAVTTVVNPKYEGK
UniProt P13612: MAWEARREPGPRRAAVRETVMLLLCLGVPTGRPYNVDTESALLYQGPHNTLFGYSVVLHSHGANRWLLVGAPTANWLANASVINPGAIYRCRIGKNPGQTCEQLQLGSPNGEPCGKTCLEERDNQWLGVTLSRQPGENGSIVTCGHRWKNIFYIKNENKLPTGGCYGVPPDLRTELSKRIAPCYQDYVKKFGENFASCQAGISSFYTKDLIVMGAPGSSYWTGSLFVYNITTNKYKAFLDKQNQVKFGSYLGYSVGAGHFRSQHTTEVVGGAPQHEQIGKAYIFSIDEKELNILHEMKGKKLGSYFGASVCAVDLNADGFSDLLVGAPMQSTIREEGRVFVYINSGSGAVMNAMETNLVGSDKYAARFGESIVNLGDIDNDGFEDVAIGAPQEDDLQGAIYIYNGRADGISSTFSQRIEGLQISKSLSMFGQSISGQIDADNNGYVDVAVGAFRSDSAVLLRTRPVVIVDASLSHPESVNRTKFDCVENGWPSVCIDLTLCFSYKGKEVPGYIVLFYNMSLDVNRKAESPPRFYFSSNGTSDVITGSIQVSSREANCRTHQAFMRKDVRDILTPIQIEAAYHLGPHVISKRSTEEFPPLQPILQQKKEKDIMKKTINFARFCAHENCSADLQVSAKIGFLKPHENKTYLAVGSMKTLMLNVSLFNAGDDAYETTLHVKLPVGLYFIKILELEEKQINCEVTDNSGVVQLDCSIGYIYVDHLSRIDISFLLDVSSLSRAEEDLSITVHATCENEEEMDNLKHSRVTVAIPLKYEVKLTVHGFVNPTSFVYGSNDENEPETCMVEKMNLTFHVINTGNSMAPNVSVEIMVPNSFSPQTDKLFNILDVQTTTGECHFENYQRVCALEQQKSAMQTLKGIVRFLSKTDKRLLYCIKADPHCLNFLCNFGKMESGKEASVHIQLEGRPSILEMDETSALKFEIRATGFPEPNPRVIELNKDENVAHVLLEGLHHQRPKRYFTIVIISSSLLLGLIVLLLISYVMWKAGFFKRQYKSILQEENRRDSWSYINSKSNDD
UniProt P05556: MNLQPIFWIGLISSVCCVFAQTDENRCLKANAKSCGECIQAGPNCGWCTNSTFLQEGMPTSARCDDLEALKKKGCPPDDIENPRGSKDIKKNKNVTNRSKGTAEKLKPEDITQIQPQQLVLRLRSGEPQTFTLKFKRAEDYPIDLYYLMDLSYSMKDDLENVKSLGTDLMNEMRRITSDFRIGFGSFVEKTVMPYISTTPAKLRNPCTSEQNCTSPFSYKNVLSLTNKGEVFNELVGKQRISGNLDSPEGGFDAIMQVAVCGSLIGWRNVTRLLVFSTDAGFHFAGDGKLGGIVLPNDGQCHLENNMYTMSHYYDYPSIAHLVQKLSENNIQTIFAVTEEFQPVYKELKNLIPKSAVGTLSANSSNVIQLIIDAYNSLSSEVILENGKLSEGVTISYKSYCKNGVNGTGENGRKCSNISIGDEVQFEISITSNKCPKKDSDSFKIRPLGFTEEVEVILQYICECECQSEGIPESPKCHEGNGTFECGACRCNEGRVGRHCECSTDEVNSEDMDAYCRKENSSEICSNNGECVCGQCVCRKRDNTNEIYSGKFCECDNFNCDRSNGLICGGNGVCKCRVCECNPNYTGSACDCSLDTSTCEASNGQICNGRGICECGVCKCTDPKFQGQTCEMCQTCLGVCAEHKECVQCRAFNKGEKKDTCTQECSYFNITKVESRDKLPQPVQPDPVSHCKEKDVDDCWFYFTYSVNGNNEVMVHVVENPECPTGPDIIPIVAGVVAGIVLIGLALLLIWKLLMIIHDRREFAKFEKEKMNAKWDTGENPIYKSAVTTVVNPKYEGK
UniProt Q8VI36: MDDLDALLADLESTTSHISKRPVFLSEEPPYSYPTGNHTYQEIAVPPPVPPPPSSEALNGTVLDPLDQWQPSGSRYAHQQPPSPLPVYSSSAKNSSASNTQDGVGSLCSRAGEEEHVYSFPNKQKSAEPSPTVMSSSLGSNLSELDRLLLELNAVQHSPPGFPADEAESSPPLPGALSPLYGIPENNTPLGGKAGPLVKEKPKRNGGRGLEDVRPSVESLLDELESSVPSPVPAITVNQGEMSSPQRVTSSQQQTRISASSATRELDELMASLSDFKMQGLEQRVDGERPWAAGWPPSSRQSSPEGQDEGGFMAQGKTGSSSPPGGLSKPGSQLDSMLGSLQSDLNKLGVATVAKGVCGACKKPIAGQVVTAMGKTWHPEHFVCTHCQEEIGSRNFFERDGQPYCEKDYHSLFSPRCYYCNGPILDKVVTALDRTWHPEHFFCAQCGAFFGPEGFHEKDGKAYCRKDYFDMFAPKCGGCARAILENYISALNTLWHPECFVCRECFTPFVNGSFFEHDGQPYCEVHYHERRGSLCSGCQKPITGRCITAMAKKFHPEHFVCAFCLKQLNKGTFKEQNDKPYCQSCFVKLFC

Experiments:
[1] = target: T1, integrin α4β1 (mouse) (mouse (endogenous in murine CD11b+ myeloid cells)) (UniProt Q00651+P09055); experiment: co-IP; integrin α4β1 precipitated with rat anti-mouse integrin α4 (PS2) and protein G Dynabeads from 1% CHAPS lysates (1 mg protein) of murine CD11b+ myeloid cells treated with Lewis lung carcinoma conditioned medium (TCM) or basal medium for 20 min at 37 °C; immunoblot for integrin α4, paxillin, talin
[2] = target: T1, integrin α4β1 (mouse) (mouse (endogenous in murine CD11b+ myeloid cells)); experiment: condition: only Mlck210−/−, Mylk siRNA-transfected or MW01-022AZ-treated cells, cytokine/chemokine-stimulated; 1 mg/ml VCAM-1/Fc; flow cytometry on cells; as a4, but Mlck210−/−, Mylk siRNA-transfected or MW01-022AZ-treated murine myeloid cells, stimulated with cytokine/chemokine; only the binder purified
[3] = target: T1, integrin α4β1 (mouse) (mouse (endogenous in murine CD11b+ myeloid cells)); experiment: flow cytometry on cells; murine CD11b+ myeloid cells (WT, vehicle or control siRNA) incubated with 200 ng/ml IL-1β, SDF-1α, IL-6, TNFα, VEGF-A or with Mn2+ together with 1 mg/ml mouse VCAM-1/human-Fc; detected with donkey anti-human-Fc antibody; mean fluorescence intensity; only the binder purified
[4] = target: T1, integrin α4β1 (mouse) (mouse (endogenous in murine CD11b+ myeloid cells)); experiment: condition: only Myh9 siRNA-transfected cells stimulated with SDF-1α; 1 mg/ml VCAM-1/Fc; flow cytometry on cells; as a4, but Myh9 siRNA-transfected murine myeloid cells, stimulated with SDF-1α; only the binder purified
[5] = target: integrin α4β1 (human) (human (endogenous in peripheral blood CD11b+ myeloid cells)) (UniProt P13612+P05556); experiment: flow cytometry on cells; human peripheral blood CD11b+ myeloid cells, vehicle or MLCK inhibitor (MW01-022AZ, ML-7), stimulated with IL-1β, SDF-1α, VEGF-A or Mn2+, incubated with recombinant VCAM-1-Fc and anti-Fc fluorochrome-conjugated antibody; mean fluorescence intensity; only the binder purified

binding [1]: binds
Molecule: paxillin (from UniProt Q8VI36 1-591)

binding [2]: no binding | binding [3]: binds | binding [4]: no binding | binding [5]: binds
B1: mouse VCAM-1/human-Fc fusion protein (Fc fusion, UniProt P29533 25-698)
chain: FKIEISPEYKTIAQIGDSMALTCSTTGCESPLFSWRTQIDSPLNAKVRTEGSKSVLTMEPVSFENEHSYLCTATCGSGKLERSIHVDIYSFPKDPEIQFSGPLEVGKPVTVKCLAPDIYPVYRLEIDLFKGDQLMNRQEFSSEEMTKSLETKSLEVTFTPVIEDIGKALVCRAKLHIDQIDSTLKERETVKELQVYISPRNTTISVHPSTRLQEGGAVTMTCSSEGLPAPEIFWGRKLDNEVLQLLSGNATLTLIAMRMEDSGVYVCEGVNLIGRDKAEVELVVQEKPFIVDISPGSQVAAQVGDSVVLTCAAIGCDSPSFSWRTQTDSPLNGVVRNEGAKSTLVLSSVGFEDEHSYLCAVTCLQRTLEKRTQVEVYSFPEDPVIKMSGPLVHGRPVTVNCTVPNVYPFDHLEIELLKGETTLMKKYFLEEMGIKSLETKILETTFIPTIEDTGKSLVCLARLHSGEMESEPKQRQSVQPLYVNVAPKETTIWVSPSPILEEGSPVNLTCSSDGIPAPKILWSRQLNNGELQPLSENTTLTFMSTKRDDSGIYVCEGINEAGISRKSVELIIQVSPKDIQLTVFPSKSVKEGDTVIISCTCGNVPETWIILKKKAKTGDMVLKSVDGSYTIRQAQLQDAGIYECESKTEVGSQLRSLTLDVKGKEHNKDYFSPE
